Data as given in PubChem BioAssay AID504774 (Drosophila RNAi Screening Center, 2011)

- Aim: 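Knock-downs that shift viability of MMS-exposed cells relative to untreated ones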 (primary screen)
- System: Drosophila Kc167 cells
- Knock-down reagent: long dsRNA against Drosophila genes, about 0.25 µg dsRNA per well
- Duration: about 6 days: 3 days knock-down, then 3 days with or without MMS
- Treatment: methyl methanesulphonate 0.004% (w/v) for 3 days after knock-down
- Detection: 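Viability in wells given MMS, read as ATP luminescence, normalised by quantiles plate by plate and averaged across replicates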
- Reading the numbers: mean viability with MMS: higher = more surviving cells after MMS
The screen tested about 23,000 reagents; shown is a random part of those with a known target gene and a result. 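Values are quantile-normalised luminescence on an arbitrary scale; higher means more cells surviving MMS.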 Reagents against one gene are numbered here. Not all columns of the deposit are shown.

mean viability with MMS, by gene knocked down and reagent
CG30047: #1 3.50e6
ocn: #1 3.55e6
CG17059: #1 3.62e6
Ras64B: #1 3.53e6
Use1: #1 3.41e6
CG30423: #1 3.66e6
Ir7f: #1 3.60e6
PolD2: #1 3.34e6
RpL13A: #1 3.27e6
qvr: #1 3.55e6
Snx27: #1 3.65e6; #2 3.38e6; #3 3.47e6
NijC: #1 3.50e6
CG13675: #1 3.28e6; #2 2.66e6; #3 3.68e6
sun: #1 3.46e6
Mpcp2: #1 3.49e6
CG10286: #1 3.42e6
CG7083: #1 3.64e6
CG34460: #1 3.59e6
Cda5: #1 3.61e6; #2 3.54e6; #3 3.54e6; #4 3.50e6
CG40282 (retired record): #1 3.51e6
Pus10: #1 3.42e6
eys: #1 3.26e6; #2 3.44e6; #3 3.56e6; #4 3.39e6
Vav: #1 3.75e6
MED11: #1 2.88e6; #2 2.95e6
ATPsynF: #1 3.70e6
CG30095: #1 3.56e6
CG31327: #1 3.43e6
CG17190: #1 3.58e6
CG5504: #1 3.63e6
CG6209: #1 3.61e6
Pex2: #1 3.59e6
Doc1: #1 3.49e6
CG9380: #1 3.50e6
Cpr76Ba: #1 3.45e6
CG7785: #1 3.50e6

A portion from the list above, as a working copy:
mean viability with MMS, by gene knocked down and reagent
ocn: #1 3.55e6
CG17059: #1 3.62e6
Ras64B: #1 3.53e6
Use1: #1 3.41e6
CG30423: #1 3.66e6
Ir7f: #1 3.60e6
